Assay results published in the supplement of paper PMC6078165.
Values are relative to the signal before dosing, not to a vehicle control; the signal also falls without drug.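 Fibroblast labels denote human fibroblasts, mainly primary ones from uterus (C12385, HUF), lung (H6013), bone (Hs27A), adrenal (HADF) and skin (WS1), plus mammary HMF and breast cancer-associated Hs343T. Cancer cells are basal-like or mesenchymal-like triple-negative breast cancer lines. A hit is a response shift exceeding 3x replicate standard deviation. The tissue of the other fibroblasts is not given here.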

Test system: BT20
Assay: relative JC-1 red fluorescence (viability) vs pre-drug, coculture with fibroblast (fraction); higher = more viable cancer cells
Conditions: 100 µM
Experimental: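 JC-1 labelled TNBC cells cocultured 1:1 (1,500 cells each) with CellTrace Violet stained primary or stromal fibroblasts in 384-well plates in FluoroBrite medium, treated with one of 42 anticancer drugs at 0.1, 1, 10 or 100 uM. JC-1 red fluorescence (mitochondrial integrity in cancer cells only) was read by plate reader every 8 h for 72 h. Values are normalised to each well's pre-drug value. The stock of one drug was tenfold lower, so its dose labels may be too high.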

O=C(CCCCCCC(=O)Nc1ccccc1)NO [Vorinostat]
relative JC-1 red fluorescence
Conditions | 8 h | 16 h | 24 h | 32 h | 40 h
coculture fibroblast: C12385 | 0.9059 | 0.82 | 0.7636 | 0.666 | 0.58
coculture fibroblast: H6013 | 0.973 | 0.895 | 0.88 | 0.79 | 0.701
coculture fibroblast: H6019 | 0.8487 | 0.774 | 0.74 | 0.687 | 0.615
coculture fibroblast: H6076 | 0.846 | 0.87 | 0.776 | 0.717 | 0.6557
coculture fibroblast: H6231 | 0.764 | 0.91 | 0.783 | 0.691 | 0.596
coculture fibroblast: HADF | 0.827 | 0.89 | 0.794 | 0.868 | 0.862
coculture fibroblast: HCFa | 0.937 | 0.854 | 0.838 | 0.737 | 0.689
coculture fibroblast: HCPF | 0.822 | 0.927 | 0.792 | 0.701 | 0.608
coculture fibroblast: HHSteC | 0.957 | 0.868 | 0.816 | 0.709 | –
coculture fibroblast: HMF | 0.938 | 0.855 | 0.779 | 0.692 | –
coculture fibroblast: HPFa | 0.934 | 0.845 | 0.817 | 0.707 | –
coculture fibroblast: HUF | 0.913 | 0.835 | 0.783 | 0.645 | –
coculture fibroblast: Hs5 | 0.756 | 0.8838 | 0.799 | 0.728 | –
coculture fibroblast: Hs27A | 0.913 | 0.8325 | 0.931 | 0.906 | –
coculture fibroblast: Hs343T | 0.77 | 0.876 | 0.74332 | 0.648 | –
coculture fibroblast: WS1 | 0.865 | 0.7724 | 0.725 | 0.616 | –
